The list shows a part of the results.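 The calls were made as follows: active = dose-dependent thermal stabilisation significant by F-test of dose-response against flat model at 10% FDR; inactive = not significant.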

By UniProt entry, the sequences of proteins in these tests, tags left out. Where a name states a change or a piece, a line headed by the entry shows the natural chain unless it says otherwise.
UniProt Q9Y3I0: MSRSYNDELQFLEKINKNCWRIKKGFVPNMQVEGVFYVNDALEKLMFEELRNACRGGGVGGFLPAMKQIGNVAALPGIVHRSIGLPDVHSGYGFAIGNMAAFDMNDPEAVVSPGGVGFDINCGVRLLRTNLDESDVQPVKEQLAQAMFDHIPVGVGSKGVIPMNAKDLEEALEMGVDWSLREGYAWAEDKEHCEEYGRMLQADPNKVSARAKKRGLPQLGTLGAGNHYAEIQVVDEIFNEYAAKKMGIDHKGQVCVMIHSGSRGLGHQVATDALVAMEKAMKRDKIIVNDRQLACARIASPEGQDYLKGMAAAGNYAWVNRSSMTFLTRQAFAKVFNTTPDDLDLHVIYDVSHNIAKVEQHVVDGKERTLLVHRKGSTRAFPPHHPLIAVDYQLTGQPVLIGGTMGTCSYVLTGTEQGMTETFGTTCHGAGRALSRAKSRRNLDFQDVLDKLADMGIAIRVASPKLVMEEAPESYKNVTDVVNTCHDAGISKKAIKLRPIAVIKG
UniProt Q5VT52: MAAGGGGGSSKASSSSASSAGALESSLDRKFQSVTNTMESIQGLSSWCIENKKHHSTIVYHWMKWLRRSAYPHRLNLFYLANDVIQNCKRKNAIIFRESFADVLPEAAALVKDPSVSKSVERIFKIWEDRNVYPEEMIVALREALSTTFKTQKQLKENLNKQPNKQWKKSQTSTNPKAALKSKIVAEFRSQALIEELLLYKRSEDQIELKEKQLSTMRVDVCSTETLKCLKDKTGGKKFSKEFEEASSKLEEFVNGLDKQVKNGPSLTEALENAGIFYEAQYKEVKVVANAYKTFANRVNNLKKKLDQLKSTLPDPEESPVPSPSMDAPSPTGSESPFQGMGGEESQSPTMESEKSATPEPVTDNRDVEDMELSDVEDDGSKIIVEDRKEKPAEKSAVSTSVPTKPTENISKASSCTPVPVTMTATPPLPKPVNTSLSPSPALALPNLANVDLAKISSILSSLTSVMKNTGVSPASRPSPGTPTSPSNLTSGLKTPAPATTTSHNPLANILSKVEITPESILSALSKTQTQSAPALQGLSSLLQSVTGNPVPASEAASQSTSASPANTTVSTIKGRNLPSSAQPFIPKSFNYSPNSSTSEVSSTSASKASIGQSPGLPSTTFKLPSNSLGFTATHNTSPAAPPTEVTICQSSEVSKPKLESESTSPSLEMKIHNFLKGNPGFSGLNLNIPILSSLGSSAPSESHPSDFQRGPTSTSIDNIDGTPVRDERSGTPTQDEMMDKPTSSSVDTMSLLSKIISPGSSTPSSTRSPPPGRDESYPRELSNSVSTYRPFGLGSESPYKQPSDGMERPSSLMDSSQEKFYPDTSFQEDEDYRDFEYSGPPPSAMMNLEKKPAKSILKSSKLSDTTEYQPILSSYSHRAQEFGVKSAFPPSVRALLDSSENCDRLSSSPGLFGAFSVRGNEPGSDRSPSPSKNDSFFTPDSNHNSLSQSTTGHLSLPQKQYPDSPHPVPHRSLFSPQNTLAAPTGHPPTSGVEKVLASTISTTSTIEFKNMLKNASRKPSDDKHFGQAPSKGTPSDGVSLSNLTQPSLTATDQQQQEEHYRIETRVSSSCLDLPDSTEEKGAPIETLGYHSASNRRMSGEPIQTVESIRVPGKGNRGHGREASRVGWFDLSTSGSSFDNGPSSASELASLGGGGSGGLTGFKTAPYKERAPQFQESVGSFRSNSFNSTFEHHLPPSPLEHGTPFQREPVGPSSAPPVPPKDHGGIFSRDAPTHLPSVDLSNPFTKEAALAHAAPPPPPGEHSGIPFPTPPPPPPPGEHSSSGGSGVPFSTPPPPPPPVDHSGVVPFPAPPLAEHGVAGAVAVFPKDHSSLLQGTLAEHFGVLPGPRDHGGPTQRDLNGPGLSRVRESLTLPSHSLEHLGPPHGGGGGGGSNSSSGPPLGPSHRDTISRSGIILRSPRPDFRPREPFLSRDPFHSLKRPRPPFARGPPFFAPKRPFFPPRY
UniProt Q8N9R8: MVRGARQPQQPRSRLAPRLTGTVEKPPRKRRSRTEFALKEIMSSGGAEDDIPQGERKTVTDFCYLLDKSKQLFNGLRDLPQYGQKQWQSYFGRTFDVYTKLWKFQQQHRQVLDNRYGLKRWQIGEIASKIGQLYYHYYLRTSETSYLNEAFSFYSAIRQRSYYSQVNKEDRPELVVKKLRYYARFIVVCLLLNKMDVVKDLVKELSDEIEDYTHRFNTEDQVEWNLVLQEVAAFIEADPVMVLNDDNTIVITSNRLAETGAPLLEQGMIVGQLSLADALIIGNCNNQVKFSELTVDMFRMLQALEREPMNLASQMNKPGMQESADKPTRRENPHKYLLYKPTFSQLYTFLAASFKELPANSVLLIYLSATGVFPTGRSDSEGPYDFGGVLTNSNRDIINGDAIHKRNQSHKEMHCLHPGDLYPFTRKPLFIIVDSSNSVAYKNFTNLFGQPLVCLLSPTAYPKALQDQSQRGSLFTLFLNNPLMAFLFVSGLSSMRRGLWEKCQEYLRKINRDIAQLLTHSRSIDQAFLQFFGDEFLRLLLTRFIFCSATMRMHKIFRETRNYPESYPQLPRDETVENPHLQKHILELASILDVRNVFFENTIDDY
UniProt O60942: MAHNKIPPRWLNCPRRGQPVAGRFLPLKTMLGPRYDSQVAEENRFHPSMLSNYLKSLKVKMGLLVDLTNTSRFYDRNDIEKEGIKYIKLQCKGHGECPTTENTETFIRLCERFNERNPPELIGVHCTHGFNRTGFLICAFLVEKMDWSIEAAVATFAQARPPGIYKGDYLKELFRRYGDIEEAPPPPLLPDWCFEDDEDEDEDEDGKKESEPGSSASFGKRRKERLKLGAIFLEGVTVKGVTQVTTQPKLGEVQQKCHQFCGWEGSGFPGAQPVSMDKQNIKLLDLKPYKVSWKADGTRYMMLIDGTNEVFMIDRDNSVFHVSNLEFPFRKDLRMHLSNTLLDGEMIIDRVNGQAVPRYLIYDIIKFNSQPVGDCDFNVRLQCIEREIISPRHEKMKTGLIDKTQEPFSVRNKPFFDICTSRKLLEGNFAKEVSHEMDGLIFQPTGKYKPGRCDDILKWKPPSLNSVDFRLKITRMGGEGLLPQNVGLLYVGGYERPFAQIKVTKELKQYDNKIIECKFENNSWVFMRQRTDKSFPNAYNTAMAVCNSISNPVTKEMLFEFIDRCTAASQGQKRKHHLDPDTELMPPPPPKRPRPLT
UniProt P15927: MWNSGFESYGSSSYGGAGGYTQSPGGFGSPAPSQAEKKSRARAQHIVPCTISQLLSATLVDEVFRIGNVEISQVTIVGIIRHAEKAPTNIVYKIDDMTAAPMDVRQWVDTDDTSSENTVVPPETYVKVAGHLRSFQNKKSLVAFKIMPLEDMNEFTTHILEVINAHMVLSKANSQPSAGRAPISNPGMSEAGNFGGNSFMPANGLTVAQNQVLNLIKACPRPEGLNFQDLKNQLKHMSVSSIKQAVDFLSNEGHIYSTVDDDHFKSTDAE
UniProt Q8IZE3: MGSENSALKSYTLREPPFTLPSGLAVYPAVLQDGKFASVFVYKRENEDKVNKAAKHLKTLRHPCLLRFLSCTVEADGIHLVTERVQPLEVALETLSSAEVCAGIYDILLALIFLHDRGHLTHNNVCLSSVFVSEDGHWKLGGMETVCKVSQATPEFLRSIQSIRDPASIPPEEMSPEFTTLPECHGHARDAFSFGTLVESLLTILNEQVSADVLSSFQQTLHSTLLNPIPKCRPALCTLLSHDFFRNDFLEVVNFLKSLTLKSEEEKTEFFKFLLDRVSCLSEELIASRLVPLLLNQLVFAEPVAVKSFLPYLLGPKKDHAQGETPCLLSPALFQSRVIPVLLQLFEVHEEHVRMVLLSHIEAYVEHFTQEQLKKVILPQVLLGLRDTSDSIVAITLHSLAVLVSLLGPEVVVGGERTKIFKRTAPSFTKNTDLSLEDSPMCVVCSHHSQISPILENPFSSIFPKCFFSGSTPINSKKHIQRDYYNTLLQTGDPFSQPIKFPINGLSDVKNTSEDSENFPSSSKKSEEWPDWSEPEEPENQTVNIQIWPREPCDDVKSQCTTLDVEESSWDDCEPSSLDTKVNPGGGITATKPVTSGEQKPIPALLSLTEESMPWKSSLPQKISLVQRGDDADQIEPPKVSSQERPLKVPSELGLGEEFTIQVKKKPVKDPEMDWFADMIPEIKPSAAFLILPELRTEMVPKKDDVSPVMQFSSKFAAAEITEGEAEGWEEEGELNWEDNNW
UniProt Q7L8J4: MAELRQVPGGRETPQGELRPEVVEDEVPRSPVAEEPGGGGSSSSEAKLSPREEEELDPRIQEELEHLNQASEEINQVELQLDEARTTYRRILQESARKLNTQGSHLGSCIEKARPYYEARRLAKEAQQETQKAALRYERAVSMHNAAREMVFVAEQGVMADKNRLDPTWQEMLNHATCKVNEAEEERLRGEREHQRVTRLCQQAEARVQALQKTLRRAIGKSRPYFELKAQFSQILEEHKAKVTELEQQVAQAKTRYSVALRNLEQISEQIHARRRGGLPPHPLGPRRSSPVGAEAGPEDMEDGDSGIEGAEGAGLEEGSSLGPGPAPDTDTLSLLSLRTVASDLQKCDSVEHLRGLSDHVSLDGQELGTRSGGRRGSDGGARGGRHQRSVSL
UniProt Q01196, whole entry: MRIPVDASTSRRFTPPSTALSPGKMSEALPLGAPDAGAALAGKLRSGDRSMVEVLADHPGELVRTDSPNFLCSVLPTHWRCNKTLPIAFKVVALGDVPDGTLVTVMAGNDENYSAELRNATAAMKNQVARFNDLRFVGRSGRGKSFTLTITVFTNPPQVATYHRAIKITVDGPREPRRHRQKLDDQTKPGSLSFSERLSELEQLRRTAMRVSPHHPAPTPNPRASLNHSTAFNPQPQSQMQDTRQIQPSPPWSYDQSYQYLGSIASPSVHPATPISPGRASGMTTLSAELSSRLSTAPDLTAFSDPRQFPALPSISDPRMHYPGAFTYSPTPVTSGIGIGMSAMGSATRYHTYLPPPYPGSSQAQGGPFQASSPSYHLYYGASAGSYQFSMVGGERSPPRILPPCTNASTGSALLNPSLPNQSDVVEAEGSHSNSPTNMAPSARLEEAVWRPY
UniProt Q5TA31: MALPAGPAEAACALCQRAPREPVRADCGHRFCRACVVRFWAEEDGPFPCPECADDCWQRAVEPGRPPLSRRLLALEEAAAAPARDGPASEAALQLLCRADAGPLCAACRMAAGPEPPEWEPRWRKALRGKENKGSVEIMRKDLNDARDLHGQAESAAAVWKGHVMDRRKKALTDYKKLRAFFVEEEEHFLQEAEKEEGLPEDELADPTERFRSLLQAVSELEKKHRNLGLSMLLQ
UniProt O76054, whole entry: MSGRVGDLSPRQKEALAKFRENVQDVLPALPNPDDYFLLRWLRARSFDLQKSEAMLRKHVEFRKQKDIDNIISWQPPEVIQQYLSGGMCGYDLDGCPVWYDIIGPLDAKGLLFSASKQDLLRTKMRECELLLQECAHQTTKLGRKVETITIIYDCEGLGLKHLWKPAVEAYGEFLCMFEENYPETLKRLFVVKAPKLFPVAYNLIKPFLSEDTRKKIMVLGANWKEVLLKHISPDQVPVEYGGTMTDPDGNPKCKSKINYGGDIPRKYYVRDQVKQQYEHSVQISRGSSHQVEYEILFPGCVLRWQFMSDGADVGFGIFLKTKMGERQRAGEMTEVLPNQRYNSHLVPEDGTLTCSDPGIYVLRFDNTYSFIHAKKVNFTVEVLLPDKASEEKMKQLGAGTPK
UniProt Q15287: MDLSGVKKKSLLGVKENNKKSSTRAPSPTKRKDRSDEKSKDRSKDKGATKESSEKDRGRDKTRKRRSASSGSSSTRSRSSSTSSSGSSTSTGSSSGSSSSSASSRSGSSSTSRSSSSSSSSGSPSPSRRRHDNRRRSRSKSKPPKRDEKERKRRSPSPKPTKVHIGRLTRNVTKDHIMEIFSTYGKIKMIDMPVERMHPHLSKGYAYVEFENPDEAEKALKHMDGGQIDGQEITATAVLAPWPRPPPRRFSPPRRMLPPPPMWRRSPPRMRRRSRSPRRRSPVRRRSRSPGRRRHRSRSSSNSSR
UniProt Q06587: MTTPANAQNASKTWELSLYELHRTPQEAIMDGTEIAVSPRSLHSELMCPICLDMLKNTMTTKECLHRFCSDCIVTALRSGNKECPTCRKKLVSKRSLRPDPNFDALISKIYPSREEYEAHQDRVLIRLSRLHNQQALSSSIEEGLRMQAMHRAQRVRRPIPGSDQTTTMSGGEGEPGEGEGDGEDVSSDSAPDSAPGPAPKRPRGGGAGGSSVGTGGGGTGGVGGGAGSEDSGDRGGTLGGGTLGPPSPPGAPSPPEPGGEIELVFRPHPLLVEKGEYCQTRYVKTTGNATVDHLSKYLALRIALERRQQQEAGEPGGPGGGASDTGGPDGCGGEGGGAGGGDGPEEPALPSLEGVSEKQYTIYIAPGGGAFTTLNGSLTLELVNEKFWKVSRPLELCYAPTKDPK
UniProt Q9Y6B6: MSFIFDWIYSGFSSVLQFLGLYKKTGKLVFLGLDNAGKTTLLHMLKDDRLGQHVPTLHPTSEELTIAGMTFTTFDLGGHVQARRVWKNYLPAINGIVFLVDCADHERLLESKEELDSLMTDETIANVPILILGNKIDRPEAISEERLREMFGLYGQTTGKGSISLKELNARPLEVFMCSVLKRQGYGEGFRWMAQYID

Compound in the test: Nc1nc2c(ncn2[C@@H]2O[C@H](COP(=O)(O)OP(=O)(O)OP(=O)(O)O)[C@@H](O)[C@H]2O)c(=O)[nH]1
The test can be described thus: dose-dependent thermal stabilisation call (2D-TPP, DLPTP, 10% FDR) (binary (1 = stabilised)); higher = stabilised by the compound. Conditions: system: Jurkat gel-filtered lysate; concentration range 1-500 µM. The protocol: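 2D thermal proteome profiling in gel-filtered Jurkat E6.1 lysate (2 mg/ml) treated with NaGTP (0, 1, 10, 100, 500 uM) for 10 min at room temperature, then heated 3 min at one of 12 temperatures (42-63.9 C). Soluble protein was quantified by TMT10 MS. The value is the DLPTP call of the paper: dose-dependent thermal stabilisation over all temperatures at 10% FDR (F-test of a dose-response against a flat model); one experiment, one call per tested protein.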
With RTCB (UniProt Q9Y3I0), the “dose-dependent thermal stabilisation call” value is active: 1. Consider RPRD2 (UniProt Q5VT52), for which the “dose-dependent thermal stabilisation call” value was inactive: 0. As for SGO1 (UniProt Q5FBB7), the figure is inactive: 0. For SEC24A (UniProt O95486) the value was active: 1; for SEC23B (UniProt Q15437), inactive: 0; for RYBP (UniProt Q8N488), inactive: 0. For SCAI (UniProt Q8N9R8) the value was active: 1; for RPL36A (UniProt P83881), inactive: 0; for SELL (UniProt P14151), inactive: 0. Regarding SCAF11 (UniProt Q99590), the “dose-dependent thermal stabilisation call” value was inactive: 0.

For RPS12 (UniProt P25398), the “dose-dependent thermal stabilisation call” value was inactive: 0. Consider SAC3D1 (UniProt A6NKF1), for which the “dose-dependent thermal stabilisation call” value is inactive: 0.

Take REXO2 (UniProt Q9Y3B8): the “dose-dependent thermal stabilisation call” value was inactive: 0. In the case of SETD3 (UniProt Q86TU7), the “dose-dependent thermal stabilisation call” value is active: 1. Consider RNGTT (UniProt O60942), for which the “dose-dependent thermal stabilisation call” value was active: 1. For RPAP2 (UniProt Q8IXW5) the value was inactive: 0; for RPS3A (UniProt P61247), inactive: 0; for RPA2 (UniProt P15927), inactive: 0. As for RPL17 (UniProt P18621), the “dose-dependent thermal stabilisation call” value was inactive: 0.

As for SELENOH (UniProt Q8IZQ5), the “dose-dependent thermal stabilisation call” value was inactive: 0. For SCYL3 (UniProt Q8IZE3) the value was inactive: 0.

Regarding SH3BP5L (UniProt Q7L8J4), the “dose-dependent thermal stabilisation call” value was inactive: 0. SBF1 (UniProt O95248): the “dose-dependent thermal stabilisation call” value was inactive: 0. For SAP130 (UniProt Q9H0E3), the “dose-dependent thermal stabilisation call” value was inactive: 0.

As for RUNX1 (UniProt Q01196), the “dose-dependent thermal stabilisation call” value was inactive: 0. As for RFK (UniProt Q969G6), the figure is active: 1; as for RNF187 (UniProt Q5TA31), inactive: 0. With SEPTIN11 (UniProt Q9NVA2), the “dose-dependent thermal stabilisation call” value is inactive: 0. Take RFXAP (UniProt O00287): the “dose-dependent thermal stabilisation call” value is inactive: 0. For SCRIB (UniProt Q14160), the “dose-dependent thermal stabilisation call” value was inactive: 0.

Take RNF40 (UniProt O75150): the “dose-dependent thermal stabilisation call” value was inactive: 0. For RFX1 (UniProt P22670) the value was inactive: 0; for SCRN3 (UniProt Q0VDG4), inactive: 0; for SEC14L2 (UniProt O76054), inactive: 0.

With RNPS1 (UniProt Q15287), the “dose-dependent thermal stabilisation call” value was active: 1. As for RECQL5 (UniProt O94762), the figure is inactive: 0; as for SEPTIN5 (UniProt Q99719), active: 1; as for RING1 (UniProt Q06587), inactive: 0. As for RPS6KA3 (UniProt P51812), the figure is active: 1; as for SAR1B (UniProt Q9Y6B6), inactive: 0.

For the origin of these results see the supplement of paper PMC7666118.
